Reference: publication PMC7670567

B1: septin 2 (SEPT2), endogenous (protein, UniProt Q15019 1-361)
chain: MSKQQPTQFINPETPGYVGFANLPNQVHRKSVKKGFEFTLMVVGESGLGKSTLINSLFLTDLYPERVIPGAAEKIERTVQIEASTVEIEERGVKLRLTVVDTPGYGDAINCRDCFKTIISYIDEQFERYLHDESGLNRRHIIDNRVHCCFYFISPFGHGLKPLDVAFMKAIHNKVNIVPVIAKADTLTLKERERLKKRILDEIEEHNIKIYHLPDAESDEDEDFKEQTRLLKASIPFSVVGSNQLIEAKGKKVRGRLYPWGVVEVENPEHNDFLKLRTMLITHMQDLQEVTQDLHYENFRSERLKRGGRKVENEDMNKDQILLEKEAELRRMQEMIARMQAQMQMQMQGGDGDGGALGHHV
B2: SEPT5, endogenous (protein, UniProt Q99719 1-369)
chain: MSTGLRYKSKLATPEDKQDIDKQYVGFATLPNQVHRKSVKKGFDFTLMVAGESGLGKSTLVHSLFLTDLYKDRKLLSAEERISQTVEILKHTVDIEEKGVKLKLTIVDTPGFGDAVNNTECWKPITDYVDQQFEQYFRDESGLNRKNIQDNRVHCCLYFISPFGHGLRPVDVGFMKALHEKVNIVPLIAKADCLVPSEIRKLKERIREEIDKFGIHVYQFPECDSDEDEDFKQQDRELKESAPFAVIGSNTVVEAKGQRVRGRLYPWGIVEVENQAHCDFVKLRNMLIRTHMHDLKDVTCDVHYENYRAHCIQQMTSKLTQDSRMESPIPILPLPTPDAETEKLIRMKDEELRRMQEMLQRMKQQMQDQ
B3: SEPT8, endogenous (protein, UniProt Q92599 1-483)
chain: MAATDLERFSNAEPEPRSLSLGGHVGFDSLPDQLVSKSVTQGFSFNILCVGETGIGKSTLMNTLFNTTFETEEASHHEACVRLRPQTYDLQESNVQLKLTIVDAVGFGDQINKDESYRPIVDYIDAQFENYLQEELKIRRSLFDYHDTRIHVCLYFITPTGHSLKSLDLVTMKKLDSKVNIIPIIAKADTISKSELHKFKIKIMGELVSNGVQIYQFPTDDEAVAEINAVMNAHLPFAVVGSTEEVKVGNKLVRARQYPWGVVQVENENHCDFVKLREMLIRVNMEDLREQTHSRHYELYRRCKLEEMGFQDSDGDSQPFSLQETYEAKRKEFLSELQRKEEEMRQMFVNKVKETELELKEKERELHEKFEHLKRVHQEEKRKVEEKRRELEEETNAFNRRKAAVEALQSQALHATSQQPLRKDKDKKNRSDIGAHQPGMSLSSSKVMMTKASVEPLNCSSWWPAIQCCSCLVRDATWREGFL
B4: SEPT11, endogenous (protein, UniProt Q9NVA2 1-429)
chain: MAVAVGRPSNEELRNLSLSGHVGFDSLPDQLVNKSTSQGFCFNILCVGETGIGKSTLMDTLFNTKFESDPATHNEPGVRLKARSYELQESNVRLKLTIVDTVGFGDQINKDDSYKPIVEYIDAQFEAYLQEELKIKRSLFNYHDTRIHACLYFIAPTGHSLKSLDLVTMKKLDSKVNIIPIIAKADTIAKNELHKFKSKIMSELVSNGVQIYQFPTDEETVAEINATMSVHLPFAVVGSTEEVKIGNKMAKARQYPWGVVQVENENHCDFVKLREMLIRVNMEDLREQTHTRHYELYRRCKLEEMGFKDTDPDSKPFSLQETYEAKRNEFLGELQKKEEEMRQMFVMRVKEKEAELKEAEKELHEKFDLLKRTHQEEKKKVEDKKKELEEEVNNFQKKKAAAQLLQSQAQQSGAQQTKKDKDKKNASFT
B5: SLC25A11, endogenous (protein, UniProt Q02978 1-314)
chain: MAATASAGAGGIDGKPRTSPKSVKFLFGGLAGMGATVFVQPLDLVKNRMQLSGEGAKTREYKTSFHALTSILKAEGLRGIYTGLSAGLLRQATYTTTRLGIYTVLFERLTGADGTPPGFLLKAVIGMTAGATGAFVGTPAEVALIRMTADGRLPADQRRGYKNVFNALIRITREEGVLTLWRGCIPTMARAVVVNAAQLASYSQSKQFLLDSGYFSDNILCHFCASMISGLVTTAASMPVDIAKTRIQNMRMIDGKPEYKNGLDVLFKVVRYEGFFSLWKGFTPYYARLGPHTVLTFIFLEQMNKAYKRLFLSG

Molecular target: HCLS1-associated protein X-1 (HAX1), endogenous (human (endogenous in HeLa and MCF7)) (UniProt O00165)
Assay: affinity purification with mass spectrometry; MCF7 lysate (150 mM NaCl, 20 mM Tris/HCl pH 7.4, 0.75% Nonidet-P40); endogenous HAX1 precipitated with anti-HAX1 rabbit polyclonal antibody on Dynabeads protein A, overnight, 4°C; control: IgG; LC-MS/MS

Binder	binding
B1	binds
B2	binds
B3	binds
B4	binds
B5	binds

These are yes or no findings as the source states them, for the method shown. In cells and extracts the contact can be indirect. Here binding means that the protein was enriched with, or labelled near, the bait; the list need not be complete.
